Data taken from ChEMBL document CHEMBL3988442, “University of Dundee, Small-Polar-MMV Screening Library” (2021).

Each number is a percent effect as filed.
The record does not define 0% and 100%; most values in the screen are far below 50% and negative numbers occur (in some assays of this library far below -100).
The compounds are a random part of those screened.

A: 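Whole-cell assay for inhibitors of Mycobacterium tuberculosis growth, labelled Cornell in the record; the read-out is not stated. The concentration is filed as 10 mM, unlikely as a test dose, so the dose is not known. The record gives no direction; compounds strong in two other growth screens of this library score well above the rest, so higher reads as stronger inhibition. About 53,000 compounds were tested under these conditions; 1.7% (about 900) showed 50% or more at least once.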
B: 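Assay on Mycobacterium tuberculosis, filed only as a heat shock assay from Cornell; the read-out is not stated. The concentration is filed as 10 mM, unlikely as a test dose, so the dose is not known. The record gives no direction; compounds that gave an IC50 in retests scored well above the rest, so higher reads as stronger inhibition. Size under these conditions: about 69,000 compounds, about 930 of them at 50% or above in at least one test.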

{"smiles": "COCCn1ccc2c(C(=O)Nc3nc4c(s3)CCC4)cccc21", "A": 15.95, "B": 25.62}
{"smiles": "O=C(O)C(c1cccc2c1OCC2)N1CCC(N2CCSCC2)CC1", "stereo": "stereo not drawn", "A": -25.92, "B": -38.84}
{"smiles": "CN(CC(=O)NC(C)(C)C)Cc1nc(-c2ccccc2)c[nH]1", "A": -16.39, "B": 33.93}
{"smiles": "CNc1ncc(CN(C)C(=O)c2cccc(-n3cccn3)c2)cn1", "A": 0.6239, "B": -30.43}
{"smiles": "CN1CCOC(CNC(=O)C2(c3ccccc3)CCC2)C1", "stereo": "stereo not drawn", "A": 3.522, "B": -17.67}
{"smiles": "CC(C)c1ncc(CN2C[C@@H](CN3CCC(CO)CC3)[C@@H](CO)C2)cn1", "A": 26.83, "B": 8.685}
{"smiles": "CCc1c(C)n(CCOC)c2nc3ccccc3n2c1=O", "A": 2.735, "B": -10.91}
{"smiles": "COc1ccc(NC(=O)N2CCCC2c2ccncc2)cn1", "stereo": "stereo not drawn", "A": 14.67, "B": 5.026}
{"smiles": "Cl.Cl.c1cnc(NCc2cncc3c2CCN(Cc2ccoc2)C3)nc1", "A": 10.02, "B": -23.91}
{"smiles": "CN1C[C@@H](NC(=O)C(C)(C)C)C[C@H]1C(=O)NCc1ncc[nH]1", "A": 3.938, "B": -4.988}
{"smiles": "O=C(c1ccc(Cl)o1)N1CCCN(Cc2cscn2)CC1", "B": -20.92}
{"smiles": "CN1CCOC(CNCC(=O)NCCc2ccc3c(c2)OCCO3)C1", "stereo": "stereo not drawn", "A": -19.13, "B": -22.25}
{"smiles": "Cc1ccsc1CNC(=O)Cc1c(C)nc2c(c1C)c(=O)[nH]n2C", "B": 5.654}
{"smiles": "O=C(C1CCCC1)N1CCCC(c2cccc(-n3ccnc3)n2)C1", "stereo": "stereo not drawn", "B": -21.9}
{"smiles": "CC(NCc1ccc(C(N)=O)cc1)c1ccc(Cl)c(Cl)c1.Cl", "stereo": "stereo not drawn", "A": 19.06, "B": -7.65}
{"smiles": "COc1ccc(Cl)cc1C(=O)N1C[C@@H](NC(=O)N(C)C)[C@H](C(C)C)C1", "A": -26.21, "B": 12.73}
{"smiles": "COCC1CN(Cc2ccncc2)Cc2nn(CC3CC3)cc21.O=C(O)C(F)(F)F.O=C(O)C(F)(F)F", "stereo": "stereo not drawn", "A": 25.94, "B": 1.084}
{"smiles": "O=C(O)C(F)(F)F.O=C(O)C(F)(F)F.O=C(O)C(F)(F)F.[H][C@@]12COC[C@]1(COCc1ccncc1)CN(Cc1ccccn1)C2", "A": 16.94, "B": -16.73}
{"smiles": "COc1cccc(C2CN(CCc3ccncc3)CCO2)c1", "stereo": "stereo not drawn", "A": 25.81, "B": -12.19}
{"smiles": "[H][C@]12CN(Cc3ccc(OC)cc3)C(=O)[C@@]1([H])CN(c1ncc(CC)cn1)C2", "A": 16.55, "B": -8.685}
{"smiles": "c1cn(Cc2nnc(C3CCN(c4nccs4)CC3)n2C2CC2)cn1", "A": 16.66, "B": -17.7}
{"smiles": "Cc1cc(CN2CCC(CNS(=O)(=O)c3ccc(C)s3)CC2)c(C)o1", "A": 19.85, "B": -12.83}
{"smiles": "O=c1c2sccc2ncn1CC(O)CN1CCOCC1", "stereo": "stereo not drawn", "A": 2.523, "B": -23.79}
{"smiles": "Cc1ccc(Nc2nccc(C3CCCN(CC(=O)N(C)C)C3)n2)nc1", "stereo": "stereo not drawn", "B": 13.43}
{"smiles": "O=C(CC1CCCC1)NCCn1ccc(-c2ccncc2)n1", "A": 20.68, "B": -2.971}
{"smiles": "Cn1cc(C2CCCN2C(=O)c2cnc(-c3ccco3)s2)cn1", "stereo": "stereo not drawn", "A": 14.61, "B": -2.488}
{"smiles": "CCn1nc(C)c(S(=O)(=O)Nc2cccc(C(=O)O)c2C)c1C", "A": 6.798, "B": -6.996}
{"smiles": "NC(=O)CN1CCCN(C(=O)Cc2cccc(C(F)(F)F)c2)CC1", "A": -15.96, "B": -30.14}
{"smiles": "CCC(C)c1ccc(NC(=O)C2CCN(C(=O)N(C)C)CC2)cc1", "stereo": "stereo not drawn", "A": 3.392, "B": -17.42}
{"smiles": "CNc1ncc2c(n1)CN(CCc1ccc(F)cc1)C2=O", "A": -18.8, "B": -20.93}
{"smiles": "CCSCCn1c(=O)n(Cc2ccc(F)cc2)c2ncc(C(=O)O)cc21", "A": 8.818, "B": -13.04}
{"smiles": "O=C(COc1ccccc1)N1C[C@@H](O)[C@H](N2CCCC2)C1.O=CO", "A": -4.874, "B": -11.7}
{"smiles": "[H][C@@]12CS(=O)(=O)C[C@]1([H])N(C(=O)NCC)CCN2Cc1ccc(CCC)o1", "A": -35.43, "B": 27.16}
{"smiles": "CC(=O)NC[C@@H]1C=C(C)[C@H](CC(=O)NCCN(C)C)C[C@H]1C(C)C", "B": -47.72}

Some entries from above, unchanged:

- CCc1c(C)n(CCOC)c2nc3ccccc3n2c1=O | A: 2.735%; B: -10.91%
- COc1cccc(C2CN(CCc3ccncc3)CCO2)c1 (stereo not drawn) | A: 25.81%; B: -12.19%
- O=C(COc1ccccc1)N1C[C@@H](O)[C@H](N2CCCC2)C1.O=CO | A: -4.874%; B: -11.7%
- O=c1c2sccc2ncn1CC(O)CN1CCOCC1 (stereo not drawn) | A: 2.523%; B: -23.79%